For 39 compounds, nucleus roundness z-score results are on record in the supplement of paper PMC11348887.

The structures appear in SMILES notation. Where a name gives a salt, the structure may show the parent alone. The list shows a part of the results. Most entries show no effect beyond the scatter of the controls. Where a SMILES comes first, the peptide text is derived from it. [ ]: non-standard residue; d: D form. pGlu = O=C1CC[C@@H](C(=O)O)N1; Thz = O=C(O)[C@@H]1CSCN1

The test system of the assay is hPSC-derived cortical neurons (WA09). Kind of assay: nucleus roundness z-score vs screen plate; higher = rounder nuclei (more mature). To be noted: 5 µM; treatment: days 7-14 after plating, readout day 21.
Consider `CNC(=C[N+](=O)[O-])NCCSCc1csc(CN(C)C)n1` [Nizatidine], for which the nucleus roundness z-score is 0.201.

For `C#C[C@]1(OC(C)=O)CC[C@H]2[C@@H]3CCC4=C[C@@H](OC(C)=O)CC[C@@H]4[C@H]3CC[C@@]21C` [Ethynodiol diacetate], the nucleus roundness z-score was found to be 0.723. To `C[C@@H](O[C@H]1OCCN(Cc2nn(P(=O)(O)O)c(=O)[nH]2)[C@H]1c1ccc(F)cc1)c1cc(C(F)(F)F)cc(C(F)(F)F)c1` [Fosaprepitant dimeglumine salt] belongs -2.25; to `CCOP(=O)(OCC)C(=Cc1cc(C(C)(C)C)c(O)c(C(C)(C)C)c1)P(=O)(OCC)OCC`, 0.787. With `Nc1nc(=S)c2ncn([C@H]3C[C@H](O)[C@@H](CO)O3)c2[nH]1`, the nucleus roundness z-score was -0.351. As for `CN(C)S(=O)(=O)c1ccc2c(c1)/C(=C/c1cc3c([nH]1)CCCC3)C(=O)N2`, the nucleus roundness z-score turned out to be 0.334. The compound `O=C(O)c1ccccc1C(=O)Nc1ccc(-c2ccccc2)cc1` [Kartogenin] returned a nucleus roundness z-score of 0.0353. Turning to `C[C@H](CS)C(=O)N1CCC[C@H]1C(=O)O` [Captopril], the nucleus roundness z-score is -0.0107.

On to `CC[C@H]1OC(=O)[C@H](C)[C@@H](O[C@H]2C[C@@](C)(OC)[C@@H](O)[C@H](C)O2)[C@H](C)[C@@H](O[C@@H]2O[C@H](C)C[C@H](N(C)C)[C@H]2O)[C@](C)(O)C[C@@H](C)/C(=N\OCOCCOC)[C@H](C)[C@@H](O)[C@]1(C)O` [Roxithromycin], for which the nucleus roundness z-score is -0.439. Then `N#CN=C(NCCCCCCOc1ccc(Cl)cc1)Nc1ccncc1`, with -9.75; and `Cc1c(C(=O)N2CCOc3ccc(-c4ccc(N)nc4)cc3C2)ccc(S(C)(=O)=O)c1F`, with -2.73. The compound `COc1ccccc1OCC(O)CN1CCN(CC(=O)Nc2c(C)cccc2C)CC1` (centres undefined) [Ranolazine 2HCl] yielded a nucleus roundness z-score of 0.086. Then `Oc1ccc(C2CNCCc3c2cc(O)c(O)c3Cl)cc1` (centres undefined) [Fenoldopam mesylate], with 0.451; and `COc1ccccc1N1CCN(CC(O)COc2cccc3ccccc23)CC1` (centres undefined) [Naftopidil], with 0.0981; and `CCCCN1CCCC[C@H]1C(=O)Nc1c(C)cccc1C` [Levobupivacaine HCl], with 0.564. `Cc1nn(C)c(COc2ccc(N3CCN(S(=O)(=O)N(C)C)CC3)cc2)c1-c1cccc2c(CCCOc3cccc4ccccc34)c(C(=O)O)n(CCN3CCOCC3)c12` came in with a nucleus roundness z-score of 1.22.

On to `O=C(NC[C@H](O)CO)c1ccncc1Nc1ccc(I)cc1F`, for which the nucleus roundness z-score was determined as 0.46. As to `COc1cc(OC)c2c(=O)[nH]c(-c3cc(C)c(OCCO)c(C)c3)nc2c1`, the nucleus roundness z-score is -1.17.

Regarding `CC(C)C[C@H](NC(=O)[C@H]1O[C@@H]1C(=O)O)C(=O)NCCCCN=C(N)N`, the nucleus roundness z-score is -0.692. Then `CN1CCN(C2CCN(C(=O)Nc3cc(Oc4ccc(NC(=O)C5(C(=O)Nc6ccc(F)cc6)CC5)c(F)c4)ccn3)CC2)CC1` [Golvatinib (E7050)], with -5.2. To `CC(C)c1cc(C(C)C)c(CC(=O)NS(=O)(=O)Oc2c(C(C)C)cccc2C(C)C)c(C(C)C)c1` [Avasimibe] belongs 0.505; to `CS(=O)(=O)c1cccc(CNc2nc(Nc3ccc4c(c3)CCC(=O)N4)ncc2C(F)(F)F)c1`, 0.451; to `CN(C)C/C=C/C(=O)Nc1cc2c(Nc3ccc(F)c(Cl)c3)ncnc2cc1O[C@H]1CCOC1` [Afatinib (BIBW2992)], 3.19. With `Nc1nc2[nH]cc(CCc3ccc(C(=O)N[C@@H](CCC(=O)O)C(=O)O)cc3)c2c(=O)[nH]1` [Pemetrexed], the nucleus roundness z-score came out at 0.2.

On to `O=c1c2ccccc2nc2n1CCc1c-2[nH]c2ccccc12` [Rutaecarpine], for which the nucleus roundness z-score was 0.0195.

On to `CCN(CC)C(=O)c1cccc(C)c1`, for which the nucleus roundness z-score is 1.13. Take `NC(=O)c1ncn([C@@H]2O[C@H](CO)[C@@H](O)[C@H]2O)n1` [Ribavirin]: the nucleus roundness z-score is -0.255. For the compound `CC(C)(C(=O)O)c1ccc(C(O)CCCN2CCC(C(O)(c3ccccc3)c3ccccc3)CC2)cc1` (centres undefined) [Fexofenadine HCl], the nucleus roundness z-score is -0.0057.

In the case of `COc1cc2c(cc1OC)CC(=O)N(CCCN(C)C[C@H]1Cc3cc(OC)c(OC)cc31)CC2` [Ivabradine HCl], the nucleus roundness z-score worked out at 1.14.

`CC1(C)S[C@@H]2[C@H](NC(=O)[C@H](NC(=O)N3CCN(S(C)(=O)=O)C3=O)c3ccccc3)C(=O)N2[C@H]1C(=O)O` [Mezlocillin Sodium] yielded a nucleus roundness z-score of 0.0348. `Nc1ccc(S(=O)(=O)Nc2ccccn2)cc1` [Sulfapyridine] had a nucleus roundness z-score of 0.245.

Regarding `CN1C(C(=O)Nc2ccccn2)=C(O)c2sc(Cl)cc2S1(=O)=O` [Lornoxicam], the nucleus roundness z-score is -0.107. Consider `Nc1ccccc1NC(=O)c1ccc(CNc2nccc(-c3cccnc3)n2)cc1` [Mocetinostat (MGCD0103)], for which the nucleus roundness z-score is -6.31. The compound `CC12CC3CC(C)(C1)CC(N)(C3)C2` [Memantine HCl] had a nucleus roundness z-score of 0.449.

Regarding `O=[N+]([O-])c1ccc(O)c2ncccc12` [Nitroxoline], the nucleus roundness z-score came out at 0.435. On to `CN1CCC(=C2c3ccccc3C=Cc3ccccc32)CC1` [Cyproheptadine HCl], for which the nucleus roundness z-score was -1.55. Then `Cc1c(OCC(F)(F)F)ccnc1C[S@@+]([O-])c1nc2ccccc2[nH]1` [Dexlansoprazole], with 0.486. On to `O=C1Nc2ccc(Cl)cc2[C@@](C#CC2CC2)(C(F)(F)F)O1` [Efavirenz], for which the nucleus roundness z-score was determined as 0.0299. Then `O=C1CC[C@@H](C(=O)N2CSC[C@H]2C(=O)O)N1` [Pidotimod] ([pGlu]-[Thz]-OH), with 0.319.
